Assay [1] has as its target RAD51 (endogenous) (human (endogenous in the cell lines of the study)) (UniProt Q06609). Description: co-IP; endogenous RAD51 and GCN5 in cell lysate; specific primary antibodies, protein A/G beads, Western blotting. In general terms: A western blot detects proteins with antibodies after separation by electrophoresis.
The target in assay [2] is Flag-RAD51 (wild type) (UniProt Q06609). Description: co-IP; HEK293T transfected with WT, K73R or K40R RAD51 vectors; co-IP and Western blotting.
For assay [3] the target is unchanged. Description: co-IP; HEK293T co-transfected with Myc-GCN5 and Flag-RAD51 vectors; immunoprecipitated with anti-Flag antibodies, Western blotting.

Sequences of proteins named here, by UniProt entry; tags and fusion partners are left off.
UniProt Q06609: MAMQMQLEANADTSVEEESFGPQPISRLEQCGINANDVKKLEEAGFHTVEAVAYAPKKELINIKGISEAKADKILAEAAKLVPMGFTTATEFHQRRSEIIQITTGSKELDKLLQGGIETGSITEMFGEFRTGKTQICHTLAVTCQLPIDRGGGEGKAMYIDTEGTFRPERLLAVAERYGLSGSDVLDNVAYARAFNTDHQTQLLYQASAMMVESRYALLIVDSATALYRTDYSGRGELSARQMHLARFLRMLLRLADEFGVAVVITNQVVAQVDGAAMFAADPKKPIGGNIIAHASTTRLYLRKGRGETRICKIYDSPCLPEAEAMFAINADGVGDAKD
UniProt Q92830: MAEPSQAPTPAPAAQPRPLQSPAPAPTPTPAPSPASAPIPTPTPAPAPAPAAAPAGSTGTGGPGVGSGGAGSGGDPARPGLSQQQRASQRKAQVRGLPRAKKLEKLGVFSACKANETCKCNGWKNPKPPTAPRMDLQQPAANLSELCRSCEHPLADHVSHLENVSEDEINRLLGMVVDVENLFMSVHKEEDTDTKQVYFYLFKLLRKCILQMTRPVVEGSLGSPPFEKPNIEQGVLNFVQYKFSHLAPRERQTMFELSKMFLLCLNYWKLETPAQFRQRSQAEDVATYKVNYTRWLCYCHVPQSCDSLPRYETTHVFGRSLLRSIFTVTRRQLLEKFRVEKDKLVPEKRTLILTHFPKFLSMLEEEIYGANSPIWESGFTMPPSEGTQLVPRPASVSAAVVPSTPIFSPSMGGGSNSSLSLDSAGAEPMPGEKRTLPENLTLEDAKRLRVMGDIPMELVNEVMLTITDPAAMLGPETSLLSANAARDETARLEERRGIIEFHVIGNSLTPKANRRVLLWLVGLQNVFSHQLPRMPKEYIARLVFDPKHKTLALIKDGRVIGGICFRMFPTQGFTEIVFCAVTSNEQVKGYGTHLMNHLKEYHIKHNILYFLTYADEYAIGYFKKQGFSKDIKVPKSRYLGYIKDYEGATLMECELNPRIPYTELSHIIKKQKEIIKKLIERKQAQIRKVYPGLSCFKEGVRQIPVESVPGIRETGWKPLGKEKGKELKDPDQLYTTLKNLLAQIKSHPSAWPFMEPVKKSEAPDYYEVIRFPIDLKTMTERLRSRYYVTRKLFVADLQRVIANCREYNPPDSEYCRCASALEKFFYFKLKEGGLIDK

These are yes or no findings as the source states them, for the method shown. In cells and extracts the contact can be indirect. Some entries that bind do so weakly or less than the wild type.

Consider “GCN5 (endogenous) (from UniProt Q92830 1-837)”, for which, in assay [1], the binding entry is on record as “binds”.

In the case of “GCN5 in HEK293T cells (Figure 6L) (from UniProt Q92830 1-837)”, the binding entry in assay [2] is “binds”. As to Myc-GCN5 (from UniProt Q92830 1-837), the binding entry in assay [3] was “binds”.

The values above are taken from publication PMC11898288.
